From publication PMC12751603 (Journal of Experimental & Clinical Cancer Research : CR, 2025)

Protein sequences, listed by entry. Tags and fused reporters are not part of them. Residues count along the entry.
UniProt P08069, residues 31-1367: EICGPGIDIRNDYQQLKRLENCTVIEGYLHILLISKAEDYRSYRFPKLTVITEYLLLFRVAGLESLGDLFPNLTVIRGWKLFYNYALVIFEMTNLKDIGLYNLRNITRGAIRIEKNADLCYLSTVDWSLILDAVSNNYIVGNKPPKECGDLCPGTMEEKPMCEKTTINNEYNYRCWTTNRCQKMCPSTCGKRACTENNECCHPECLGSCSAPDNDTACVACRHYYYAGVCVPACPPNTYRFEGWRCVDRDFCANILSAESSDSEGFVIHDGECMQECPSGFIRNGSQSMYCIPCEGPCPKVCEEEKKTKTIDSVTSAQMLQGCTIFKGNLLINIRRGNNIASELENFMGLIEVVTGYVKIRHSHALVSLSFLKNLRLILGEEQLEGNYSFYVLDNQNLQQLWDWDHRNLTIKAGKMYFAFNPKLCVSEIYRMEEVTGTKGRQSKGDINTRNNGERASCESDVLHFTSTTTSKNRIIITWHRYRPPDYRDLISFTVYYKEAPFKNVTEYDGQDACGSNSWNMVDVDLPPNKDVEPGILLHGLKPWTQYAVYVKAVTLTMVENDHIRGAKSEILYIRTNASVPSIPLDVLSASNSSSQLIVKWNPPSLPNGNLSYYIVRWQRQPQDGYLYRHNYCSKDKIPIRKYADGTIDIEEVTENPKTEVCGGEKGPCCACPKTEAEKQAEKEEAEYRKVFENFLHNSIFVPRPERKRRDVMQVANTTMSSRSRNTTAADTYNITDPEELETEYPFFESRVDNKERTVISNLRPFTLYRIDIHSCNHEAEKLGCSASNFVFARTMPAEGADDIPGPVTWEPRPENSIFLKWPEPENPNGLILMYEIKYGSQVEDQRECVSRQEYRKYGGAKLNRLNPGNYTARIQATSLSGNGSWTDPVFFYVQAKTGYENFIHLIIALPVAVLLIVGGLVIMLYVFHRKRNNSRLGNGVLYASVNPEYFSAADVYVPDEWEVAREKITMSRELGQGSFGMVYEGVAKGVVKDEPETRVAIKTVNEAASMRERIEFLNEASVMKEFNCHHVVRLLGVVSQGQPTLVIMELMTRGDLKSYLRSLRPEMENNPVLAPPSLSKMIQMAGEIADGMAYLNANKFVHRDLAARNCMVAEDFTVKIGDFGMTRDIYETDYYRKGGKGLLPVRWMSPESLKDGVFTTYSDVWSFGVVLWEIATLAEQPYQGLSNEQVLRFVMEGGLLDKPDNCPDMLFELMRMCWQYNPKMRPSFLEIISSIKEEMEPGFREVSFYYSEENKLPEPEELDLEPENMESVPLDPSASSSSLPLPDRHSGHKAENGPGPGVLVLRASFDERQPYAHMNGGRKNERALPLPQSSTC

Assays:
Flag-tagged PTPN9^C515S = molecular target: T1, Flag-tagged PTPN9^C515S (UniProt P43378); assay: affinity purification with mass spectrometry; immunoprecipitation of Flag-tagged PTPN9 trapping mutants (and empty Flag vector) from HEK293T cells, LC-MS/MS
T1 sequence: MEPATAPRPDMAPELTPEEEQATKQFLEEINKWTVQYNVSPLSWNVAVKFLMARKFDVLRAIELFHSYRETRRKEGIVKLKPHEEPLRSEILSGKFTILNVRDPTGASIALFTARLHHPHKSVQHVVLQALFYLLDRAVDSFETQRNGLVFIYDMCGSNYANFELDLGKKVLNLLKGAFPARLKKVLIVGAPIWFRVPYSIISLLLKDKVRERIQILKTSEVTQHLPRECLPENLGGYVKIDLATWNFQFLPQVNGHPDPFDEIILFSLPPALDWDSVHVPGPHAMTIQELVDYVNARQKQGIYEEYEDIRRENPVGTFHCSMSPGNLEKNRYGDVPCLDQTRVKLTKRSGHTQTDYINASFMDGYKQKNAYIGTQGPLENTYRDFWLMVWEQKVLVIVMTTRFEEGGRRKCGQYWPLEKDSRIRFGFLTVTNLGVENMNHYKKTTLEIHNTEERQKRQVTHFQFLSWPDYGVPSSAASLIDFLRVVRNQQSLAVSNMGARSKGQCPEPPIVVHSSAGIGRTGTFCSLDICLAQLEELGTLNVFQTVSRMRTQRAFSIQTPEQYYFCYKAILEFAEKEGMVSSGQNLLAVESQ

Flag-tagged PTPN9^D470A = molecular target: T2, Flag-tagged PTPN9^D470A (UniProt P43378); assay: as above
T2 sequence: T1 sequence with D470A, S515C

- binding (Flag-tagged PTPN9^C515S): binds
- binding (Flag-tagged PTPN9^D470A): binds
Substance: Insulin-like growth factor 1 receptor (endogenous) (from UniProt P08069 31-1367)

Residue numbers refer to the chain shown, from its start. These are yes or no findings as the source states them, for the method shown. Binding seen in cells or lysates may run through a third protein. A yes stands for co-enrichment or nearness to the bait. Other partners may have been found. Where a sequence is shown, tags or fusion partners need not be part of it.
